The record followed here is the supplement of paper PMC10849652.

The chains behind the UniProt entries cited, without tags or fusion partners. Where a name states a change or a piece, a line headed by the entry shows the natural chain unless it says otherwise.
UniProt Q92558: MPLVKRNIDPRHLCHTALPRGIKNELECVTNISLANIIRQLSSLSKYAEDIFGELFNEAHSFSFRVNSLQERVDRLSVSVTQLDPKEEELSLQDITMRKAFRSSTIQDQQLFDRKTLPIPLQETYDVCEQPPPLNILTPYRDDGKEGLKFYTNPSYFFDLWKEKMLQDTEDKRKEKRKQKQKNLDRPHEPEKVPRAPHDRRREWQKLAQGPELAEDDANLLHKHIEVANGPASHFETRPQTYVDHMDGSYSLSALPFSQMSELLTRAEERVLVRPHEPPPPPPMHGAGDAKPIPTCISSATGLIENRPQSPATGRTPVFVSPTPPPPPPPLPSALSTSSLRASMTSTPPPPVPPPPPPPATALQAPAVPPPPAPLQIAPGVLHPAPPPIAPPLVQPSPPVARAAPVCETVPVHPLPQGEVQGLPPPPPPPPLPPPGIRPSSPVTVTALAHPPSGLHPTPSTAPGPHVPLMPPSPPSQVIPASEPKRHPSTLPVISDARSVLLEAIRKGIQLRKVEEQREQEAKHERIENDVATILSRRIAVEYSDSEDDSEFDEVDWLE
UniProt Q9NRW7: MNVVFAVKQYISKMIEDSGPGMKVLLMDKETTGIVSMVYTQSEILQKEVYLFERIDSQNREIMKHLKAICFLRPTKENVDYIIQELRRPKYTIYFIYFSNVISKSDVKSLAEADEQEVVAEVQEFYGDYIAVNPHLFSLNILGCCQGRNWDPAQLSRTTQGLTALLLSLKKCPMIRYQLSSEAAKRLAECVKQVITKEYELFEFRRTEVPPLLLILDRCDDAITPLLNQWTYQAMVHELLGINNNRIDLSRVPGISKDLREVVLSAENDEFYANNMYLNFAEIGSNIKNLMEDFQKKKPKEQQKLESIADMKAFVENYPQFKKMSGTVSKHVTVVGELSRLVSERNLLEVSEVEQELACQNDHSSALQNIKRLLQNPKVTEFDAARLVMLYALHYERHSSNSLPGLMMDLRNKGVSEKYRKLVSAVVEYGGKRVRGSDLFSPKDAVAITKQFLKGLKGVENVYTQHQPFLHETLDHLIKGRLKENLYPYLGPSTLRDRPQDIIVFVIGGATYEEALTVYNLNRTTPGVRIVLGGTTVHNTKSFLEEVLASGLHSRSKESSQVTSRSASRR
UniProt O00401, whole entry, looked up: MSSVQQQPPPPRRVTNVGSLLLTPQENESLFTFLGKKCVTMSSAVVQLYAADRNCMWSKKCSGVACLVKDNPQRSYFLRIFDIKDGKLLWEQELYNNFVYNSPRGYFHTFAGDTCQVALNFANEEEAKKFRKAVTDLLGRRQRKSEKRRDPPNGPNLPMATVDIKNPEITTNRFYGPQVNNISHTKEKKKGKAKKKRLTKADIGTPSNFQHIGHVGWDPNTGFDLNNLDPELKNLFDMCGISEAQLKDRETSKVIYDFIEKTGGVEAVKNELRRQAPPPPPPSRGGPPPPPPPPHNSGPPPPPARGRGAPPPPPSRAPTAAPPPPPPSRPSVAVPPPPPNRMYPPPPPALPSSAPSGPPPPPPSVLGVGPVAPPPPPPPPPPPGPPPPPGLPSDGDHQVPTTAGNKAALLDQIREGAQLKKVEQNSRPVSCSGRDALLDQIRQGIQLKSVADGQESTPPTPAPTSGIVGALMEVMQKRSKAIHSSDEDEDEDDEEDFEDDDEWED
UniProt Q969T9: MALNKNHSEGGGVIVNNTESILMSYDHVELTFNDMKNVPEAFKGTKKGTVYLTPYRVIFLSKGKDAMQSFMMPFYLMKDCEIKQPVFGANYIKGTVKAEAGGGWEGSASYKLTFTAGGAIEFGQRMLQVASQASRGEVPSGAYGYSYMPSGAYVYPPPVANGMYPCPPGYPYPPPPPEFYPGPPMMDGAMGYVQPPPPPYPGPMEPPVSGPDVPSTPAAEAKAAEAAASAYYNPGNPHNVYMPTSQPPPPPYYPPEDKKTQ
UniProt Q9Y484: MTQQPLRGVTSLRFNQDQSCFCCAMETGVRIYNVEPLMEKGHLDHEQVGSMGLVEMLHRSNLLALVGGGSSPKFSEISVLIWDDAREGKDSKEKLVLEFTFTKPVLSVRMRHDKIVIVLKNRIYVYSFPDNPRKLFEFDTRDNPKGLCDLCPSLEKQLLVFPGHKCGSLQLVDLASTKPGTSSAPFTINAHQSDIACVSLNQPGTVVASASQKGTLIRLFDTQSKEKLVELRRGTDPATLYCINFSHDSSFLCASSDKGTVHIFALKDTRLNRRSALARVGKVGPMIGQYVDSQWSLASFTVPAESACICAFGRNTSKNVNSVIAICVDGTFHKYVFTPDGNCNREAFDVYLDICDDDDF
UniProt Q14119: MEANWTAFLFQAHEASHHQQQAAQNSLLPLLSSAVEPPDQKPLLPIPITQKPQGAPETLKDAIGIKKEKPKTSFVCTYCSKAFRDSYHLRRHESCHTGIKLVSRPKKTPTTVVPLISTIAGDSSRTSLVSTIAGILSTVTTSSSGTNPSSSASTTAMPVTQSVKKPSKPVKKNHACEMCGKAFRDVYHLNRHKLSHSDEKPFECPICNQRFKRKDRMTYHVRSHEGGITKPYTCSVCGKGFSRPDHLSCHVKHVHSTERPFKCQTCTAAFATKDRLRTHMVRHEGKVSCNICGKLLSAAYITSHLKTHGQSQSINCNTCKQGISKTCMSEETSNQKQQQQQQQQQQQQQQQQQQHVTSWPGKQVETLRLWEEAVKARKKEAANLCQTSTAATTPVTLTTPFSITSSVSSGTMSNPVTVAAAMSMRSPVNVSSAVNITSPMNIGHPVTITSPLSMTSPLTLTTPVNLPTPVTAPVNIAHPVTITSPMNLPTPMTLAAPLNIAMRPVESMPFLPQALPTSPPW
UniProt Q9NW82: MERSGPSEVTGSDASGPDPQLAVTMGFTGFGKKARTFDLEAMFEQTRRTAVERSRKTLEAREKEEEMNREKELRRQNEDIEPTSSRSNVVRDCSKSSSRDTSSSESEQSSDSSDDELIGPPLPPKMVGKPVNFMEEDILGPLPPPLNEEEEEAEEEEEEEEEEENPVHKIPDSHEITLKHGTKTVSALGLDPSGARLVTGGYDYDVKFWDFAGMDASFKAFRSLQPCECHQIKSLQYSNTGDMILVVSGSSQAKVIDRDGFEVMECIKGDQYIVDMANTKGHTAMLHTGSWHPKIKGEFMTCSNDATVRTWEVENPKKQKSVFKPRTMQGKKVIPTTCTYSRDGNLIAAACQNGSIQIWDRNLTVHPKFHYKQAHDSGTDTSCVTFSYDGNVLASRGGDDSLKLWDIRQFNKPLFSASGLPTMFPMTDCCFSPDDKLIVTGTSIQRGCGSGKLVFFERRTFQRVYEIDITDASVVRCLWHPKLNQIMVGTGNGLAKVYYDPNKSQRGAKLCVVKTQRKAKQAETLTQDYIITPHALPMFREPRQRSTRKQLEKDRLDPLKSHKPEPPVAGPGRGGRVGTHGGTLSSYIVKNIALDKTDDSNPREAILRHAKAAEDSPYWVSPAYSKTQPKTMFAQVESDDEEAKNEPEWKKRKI
UniProt Q96MX6, whole entry, looked up: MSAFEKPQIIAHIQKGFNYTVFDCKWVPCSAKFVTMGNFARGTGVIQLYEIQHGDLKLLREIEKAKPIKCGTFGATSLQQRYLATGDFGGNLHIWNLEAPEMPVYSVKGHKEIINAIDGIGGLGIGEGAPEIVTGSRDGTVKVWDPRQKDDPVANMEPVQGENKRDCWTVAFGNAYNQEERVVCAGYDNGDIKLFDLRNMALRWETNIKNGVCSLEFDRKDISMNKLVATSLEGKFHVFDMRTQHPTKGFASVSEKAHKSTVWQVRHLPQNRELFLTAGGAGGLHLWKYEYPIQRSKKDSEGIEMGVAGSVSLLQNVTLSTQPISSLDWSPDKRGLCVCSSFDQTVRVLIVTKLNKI
UniProt Q6PJI9: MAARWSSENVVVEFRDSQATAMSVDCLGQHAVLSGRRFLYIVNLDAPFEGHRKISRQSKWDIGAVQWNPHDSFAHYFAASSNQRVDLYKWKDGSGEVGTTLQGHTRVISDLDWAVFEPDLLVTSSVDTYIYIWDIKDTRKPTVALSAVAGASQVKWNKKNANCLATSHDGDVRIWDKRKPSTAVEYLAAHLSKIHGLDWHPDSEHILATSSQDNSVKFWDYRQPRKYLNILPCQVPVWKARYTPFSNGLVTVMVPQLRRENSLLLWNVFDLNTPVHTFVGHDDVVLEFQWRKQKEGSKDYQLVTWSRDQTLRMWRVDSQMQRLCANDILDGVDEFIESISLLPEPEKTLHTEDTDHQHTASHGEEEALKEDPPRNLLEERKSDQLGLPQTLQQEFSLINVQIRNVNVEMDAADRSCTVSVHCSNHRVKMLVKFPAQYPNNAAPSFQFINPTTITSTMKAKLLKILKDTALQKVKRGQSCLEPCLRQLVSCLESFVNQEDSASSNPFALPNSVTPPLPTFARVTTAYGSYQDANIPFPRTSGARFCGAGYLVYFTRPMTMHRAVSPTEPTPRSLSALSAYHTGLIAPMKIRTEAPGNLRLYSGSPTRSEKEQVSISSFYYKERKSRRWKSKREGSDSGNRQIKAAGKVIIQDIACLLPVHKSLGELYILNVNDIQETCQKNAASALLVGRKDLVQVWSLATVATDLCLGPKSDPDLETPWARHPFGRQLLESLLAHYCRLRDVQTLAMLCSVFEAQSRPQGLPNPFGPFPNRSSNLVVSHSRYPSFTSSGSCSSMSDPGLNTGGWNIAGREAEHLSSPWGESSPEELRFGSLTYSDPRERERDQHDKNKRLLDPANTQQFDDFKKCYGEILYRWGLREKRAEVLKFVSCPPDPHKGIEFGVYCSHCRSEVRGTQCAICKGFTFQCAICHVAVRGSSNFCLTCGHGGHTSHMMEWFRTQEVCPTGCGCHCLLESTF
UniProt P40337, whole entry, looked up: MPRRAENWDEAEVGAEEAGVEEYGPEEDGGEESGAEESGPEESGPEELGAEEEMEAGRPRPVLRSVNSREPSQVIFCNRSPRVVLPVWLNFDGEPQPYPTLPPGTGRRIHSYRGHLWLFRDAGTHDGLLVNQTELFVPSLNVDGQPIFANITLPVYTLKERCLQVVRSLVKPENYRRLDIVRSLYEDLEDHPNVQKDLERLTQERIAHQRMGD
UniProt Q6UXN9, whole entry, looked up: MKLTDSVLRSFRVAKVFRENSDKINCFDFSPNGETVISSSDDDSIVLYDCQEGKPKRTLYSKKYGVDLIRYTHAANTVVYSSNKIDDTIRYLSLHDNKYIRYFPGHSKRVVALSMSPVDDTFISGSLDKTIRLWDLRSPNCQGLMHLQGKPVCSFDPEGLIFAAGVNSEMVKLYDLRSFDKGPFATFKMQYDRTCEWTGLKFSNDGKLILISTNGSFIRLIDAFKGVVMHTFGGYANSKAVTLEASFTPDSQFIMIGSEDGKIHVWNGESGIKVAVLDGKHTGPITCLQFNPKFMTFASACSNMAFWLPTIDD
UniProt O95497: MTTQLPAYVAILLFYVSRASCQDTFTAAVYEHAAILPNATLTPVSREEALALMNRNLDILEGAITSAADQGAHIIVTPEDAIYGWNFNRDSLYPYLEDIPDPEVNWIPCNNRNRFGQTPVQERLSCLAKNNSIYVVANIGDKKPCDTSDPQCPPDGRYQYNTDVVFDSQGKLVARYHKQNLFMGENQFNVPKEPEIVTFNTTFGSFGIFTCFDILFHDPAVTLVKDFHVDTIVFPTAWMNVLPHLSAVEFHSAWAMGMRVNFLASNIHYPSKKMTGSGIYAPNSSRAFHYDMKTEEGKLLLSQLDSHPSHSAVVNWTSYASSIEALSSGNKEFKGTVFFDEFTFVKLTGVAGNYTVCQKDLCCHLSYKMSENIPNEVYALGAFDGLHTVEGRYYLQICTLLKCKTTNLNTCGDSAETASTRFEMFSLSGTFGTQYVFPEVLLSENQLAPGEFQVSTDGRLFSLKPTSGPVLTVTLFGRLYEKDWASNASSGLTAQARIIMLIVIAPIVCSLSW
UniProt Q8IWB7: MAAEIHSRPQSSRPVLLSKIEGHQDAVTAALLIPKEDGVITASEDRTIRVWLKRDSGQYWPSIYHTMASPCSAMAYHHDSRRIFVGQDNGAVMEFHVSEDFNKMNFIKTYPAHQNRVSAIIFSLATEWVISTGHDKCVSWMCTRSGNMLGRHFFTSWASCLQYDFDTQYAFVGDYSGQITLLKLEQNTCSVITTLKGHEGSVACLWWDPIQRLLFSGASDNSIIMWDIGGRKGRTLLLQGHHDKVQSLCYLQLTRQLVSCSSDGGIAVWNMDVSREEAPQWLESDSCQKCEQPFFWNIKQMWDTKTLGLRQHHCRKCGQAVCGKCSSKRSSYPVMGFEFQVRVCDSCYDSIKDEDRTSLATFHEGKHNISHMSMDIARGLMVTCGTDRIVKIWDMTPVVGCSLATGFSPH
UniProt Q9BQA1, whole entry, looked up: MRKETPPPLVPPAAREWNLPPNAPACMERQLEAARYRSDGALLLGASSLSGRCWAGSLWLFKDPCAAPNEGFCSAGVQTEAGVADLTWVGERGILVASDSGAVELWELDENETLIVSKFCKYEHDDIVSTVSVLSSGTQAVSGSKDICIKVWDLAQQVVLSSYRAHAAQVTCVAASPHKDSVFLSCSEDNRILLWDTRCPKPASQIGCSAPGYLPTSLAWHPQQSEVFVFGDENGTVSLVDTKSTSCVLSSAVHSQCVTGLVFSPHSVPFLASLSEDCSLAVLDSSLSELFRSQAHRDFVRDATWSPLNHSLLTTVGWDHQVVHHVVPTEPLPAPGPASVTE

The list shows a part of the results.

Compound in the test: c1cn2cc(-c3ccc4cn[nH]c4c3)nc(Nc3ccc(N4CCOCC4)cc3)c2n1 [entospletinib]
Description: log2 fold change, soluble protein after heating vs DMSO (PISA); higher = thermal stabilisation; K562 cells, 10 uM, 30 min; active = over 0.2 and 3.5 SD of the protein, either way, in both replicates (recomputed). A digest of the protocol:
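Aliquots of K562 cells (2×10^6 cells/mL) treated with 10 μM compound for 30 min were heated for 3 min over 48°C-58°C. After pooling and extraction in PBS with 0.5% NP-40 at 4°C, soluble protein from a 21,000xg, 90 min spin was quantified by TMTpro 16plex LC-MS/MS with channel sums equalised. Thermal stability is expressed against control samples, from duplicates, as a log2 fold change.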
With WASF1 (UniProt Q92558), the log2 fold change is inactive: 0.027.
In the case of WRNIP1 (UniProt Q96S55) it was inactive: -0.148.
For WIPF1 isoform 3 (UniProt O43516) the value was inactive: 0.005; for VPS45 (UniProt Q9NRW7), inactive: 0.06.
In the case of WASL (UniProt O00401) it was inactive: 0.027; in that of WDTC1 (UniProt Q8N5D0), inactive: -0.04; in that of WBP2 (UniProt Q969T9), inactive: 0.007.
Take WDR45 (UniProt Q9Y484): the log2 fold change was inactive: -0.046.
For VEZF1 (UniProt Q14119) the value was inactive: -0.009; for WDR70 (UniProt Q9NW82), inactive: 0.025; for VWDE (UniProt Q8N2E2), inactive: -0.003.
For VPS37C (UniProt A5D8V6) the value was inactive: 0.005.
In the case of WDR92 (UniProt Q96MX6) it was inactive: 0.015.
As to VPS26A (UniProt O75436), the log2 fold change is inactive: -0.061.
Turning to WDR59 (UniProt Q6PJI9), the log2 fold change was inactive: 0.117.
Regarding VPS29 isoform 2 (UniProt Q9UBQ0), the log2 fold change was inactive: 0.006.
For VHL (UniProt P40337) the value was inactive: 0.181; for WDR82 (UniProt Q6UXN9), inactive: 0.052; for VEGFA (UniProt H0YBI8), inactive: -0.074.
In the case of VPS13D (UniProt Q5THJ4) it was inactive: 0.059; in that of WARS (UniProt P23381), inactive: 0.031; in that of VNN1 (UniProt O95497), inactive: 0.048.
In the case of WDR26, A0A499FIZ0 it was inactive: 0.023; in that of VKORC1L1, A0A3B3ISV4, inactive: 0.121.
Regarding WDFY1 (UniProt Q8IWB7), the log2 fold change was inactive: 0.012.
For WDR20 isoform 7 (UniProt Q8TBZ3) the value was inactive: 0.036; for WDR77 (UniProt Q9BQA1), inactive: -0.005.
In the case of WDR89 (UniProt Q96FK6), the log2 fold change is inactive: -0.009.
